The supplement of paper PMC12067093, “Discovery and optimisation of a covalent ligand for TRIM25 and its application to targeted protein ubiquitination” (Chemical Science, 2025)
Some of the results follow.

Protein sequences, listed by entry. Tags and fused reporters are not part of them. Lines headed by an entry give the natural chain unless they say otherwise; changes in a name come on top.
UniProt Q02447: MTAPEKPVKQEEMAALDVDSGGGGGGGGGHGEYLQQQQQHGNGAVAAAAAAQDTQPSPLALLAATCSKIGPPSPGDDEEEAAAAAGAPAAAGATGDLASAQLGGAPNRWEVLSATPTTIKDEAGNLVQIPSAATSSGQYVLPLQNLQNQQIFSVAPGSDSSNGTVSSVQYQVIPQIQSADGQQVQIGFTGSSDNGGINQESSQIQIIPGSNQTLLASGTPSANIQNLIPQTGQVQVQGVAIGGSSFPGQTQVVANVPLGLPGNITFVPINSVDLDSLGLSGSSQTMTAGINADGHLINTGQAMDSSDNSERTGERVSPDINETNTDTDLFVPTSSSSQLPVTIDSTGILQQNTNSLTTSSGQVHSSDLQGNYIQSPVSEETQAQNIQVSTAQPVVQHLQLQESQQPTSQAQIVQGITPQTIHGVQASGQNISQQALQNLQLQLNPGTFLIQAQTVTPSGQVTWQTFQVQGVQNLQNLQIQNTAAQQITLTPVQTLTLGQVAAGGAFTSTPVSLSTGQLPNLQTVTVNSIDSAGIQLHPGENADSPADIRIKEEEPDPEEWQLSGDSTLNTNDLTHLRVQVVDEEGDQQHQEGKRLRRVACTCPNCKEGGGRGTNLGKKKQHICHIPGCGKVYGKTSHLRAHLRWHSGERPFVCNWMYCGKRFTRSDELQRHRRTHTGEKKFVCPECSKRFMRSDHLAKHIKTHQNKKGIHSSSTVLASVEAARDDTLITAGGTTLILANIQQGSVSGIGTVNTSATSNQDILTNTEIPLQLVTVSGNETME
UniProt P09132: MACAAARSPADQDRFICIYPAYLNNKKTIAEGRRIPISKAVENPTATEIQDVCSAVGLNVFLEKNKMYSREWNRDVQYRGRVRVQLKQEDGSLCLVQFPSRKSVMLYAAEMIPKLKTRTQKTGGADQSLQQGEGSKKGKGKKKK
UniProt Q9NUQ6: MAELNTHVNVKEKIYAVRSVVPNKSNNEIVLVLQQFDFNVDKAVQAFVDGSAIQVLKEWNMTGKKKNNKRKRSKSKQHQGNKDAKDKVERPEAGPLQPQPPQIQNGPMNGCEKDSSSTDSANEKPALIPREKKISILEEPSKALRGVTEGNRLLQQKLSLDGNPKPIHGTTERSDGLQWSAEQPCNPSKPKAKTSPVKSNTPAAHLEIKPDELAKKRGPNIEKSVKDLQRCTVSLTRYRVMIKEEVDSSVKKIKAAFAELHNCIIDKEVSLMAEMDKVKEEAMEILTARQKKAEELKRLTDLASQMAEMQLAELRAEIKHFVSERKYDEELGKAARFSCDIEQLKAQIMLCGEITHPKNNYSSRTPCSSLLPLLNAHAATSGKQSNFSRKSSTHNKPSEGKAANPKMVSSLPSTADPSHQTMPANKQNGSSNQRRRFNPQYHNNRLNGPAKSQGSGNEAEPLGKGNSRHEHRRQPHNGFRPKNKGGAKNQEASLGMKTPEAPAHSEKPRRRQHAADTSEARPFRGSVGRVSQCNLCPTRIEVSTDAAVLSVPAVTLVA
UniProt Q8N5C6: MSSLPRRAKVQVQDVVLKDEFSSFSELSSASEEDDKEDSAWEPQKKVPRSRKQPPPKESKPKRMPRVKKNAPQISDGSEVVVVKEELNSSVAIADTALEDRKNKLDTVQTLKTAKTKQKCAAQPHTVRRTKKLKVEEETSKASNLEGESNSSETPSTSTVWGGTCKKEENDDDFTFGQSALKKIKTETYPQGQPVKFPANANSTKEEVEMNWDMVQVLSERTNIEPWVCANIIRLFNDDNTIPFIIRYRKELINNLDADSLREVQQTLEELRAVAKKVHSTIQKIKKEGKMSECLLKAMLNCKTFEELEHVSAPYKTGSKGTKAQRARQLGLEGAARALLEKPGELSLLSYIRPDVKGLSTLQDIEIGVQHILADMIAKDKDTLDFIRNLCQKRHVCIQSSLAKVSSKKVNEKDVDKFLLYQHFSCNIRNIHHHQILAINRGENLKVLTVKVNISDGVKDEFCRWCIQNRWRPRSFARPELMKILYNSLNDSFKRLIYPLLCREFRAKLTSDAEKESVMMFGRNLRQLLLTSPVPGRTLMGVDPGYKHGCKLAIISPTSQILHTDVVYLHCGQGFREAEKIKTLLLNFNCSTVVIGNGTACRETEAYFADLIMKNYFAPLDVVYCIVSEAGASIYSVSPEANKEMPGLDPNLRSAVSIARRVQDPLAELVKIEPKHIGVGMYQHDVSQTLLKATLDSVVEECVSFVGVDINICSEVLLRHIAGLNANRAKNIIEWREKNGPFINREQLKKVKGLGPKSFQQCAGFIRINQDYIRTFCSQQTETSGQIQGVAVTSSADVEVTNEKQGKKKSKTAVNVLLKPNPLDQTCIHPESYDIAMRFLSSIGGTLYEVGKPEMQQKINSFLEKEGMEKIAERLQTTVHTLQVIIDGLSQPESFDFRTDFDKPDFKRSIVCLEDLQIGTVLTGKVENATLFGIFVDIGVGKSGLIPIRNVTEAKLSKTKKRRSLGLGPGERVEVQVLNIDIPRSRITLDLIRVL
UniProt P19623: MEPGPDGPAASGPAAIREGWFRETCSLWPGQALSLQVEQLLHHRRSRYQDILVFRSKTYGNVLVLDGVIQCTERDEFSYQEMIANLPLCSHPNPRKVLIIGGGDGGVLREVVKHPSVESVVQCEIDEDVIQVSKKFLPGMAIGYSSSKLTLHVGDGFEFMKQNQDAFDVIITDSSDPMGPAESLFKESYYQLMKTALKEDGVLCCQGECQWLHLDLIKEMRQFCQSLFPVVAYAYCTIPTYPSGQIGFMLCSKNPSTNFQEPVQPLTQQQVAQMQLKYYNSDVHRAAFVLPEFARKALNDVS
UniProt P18583: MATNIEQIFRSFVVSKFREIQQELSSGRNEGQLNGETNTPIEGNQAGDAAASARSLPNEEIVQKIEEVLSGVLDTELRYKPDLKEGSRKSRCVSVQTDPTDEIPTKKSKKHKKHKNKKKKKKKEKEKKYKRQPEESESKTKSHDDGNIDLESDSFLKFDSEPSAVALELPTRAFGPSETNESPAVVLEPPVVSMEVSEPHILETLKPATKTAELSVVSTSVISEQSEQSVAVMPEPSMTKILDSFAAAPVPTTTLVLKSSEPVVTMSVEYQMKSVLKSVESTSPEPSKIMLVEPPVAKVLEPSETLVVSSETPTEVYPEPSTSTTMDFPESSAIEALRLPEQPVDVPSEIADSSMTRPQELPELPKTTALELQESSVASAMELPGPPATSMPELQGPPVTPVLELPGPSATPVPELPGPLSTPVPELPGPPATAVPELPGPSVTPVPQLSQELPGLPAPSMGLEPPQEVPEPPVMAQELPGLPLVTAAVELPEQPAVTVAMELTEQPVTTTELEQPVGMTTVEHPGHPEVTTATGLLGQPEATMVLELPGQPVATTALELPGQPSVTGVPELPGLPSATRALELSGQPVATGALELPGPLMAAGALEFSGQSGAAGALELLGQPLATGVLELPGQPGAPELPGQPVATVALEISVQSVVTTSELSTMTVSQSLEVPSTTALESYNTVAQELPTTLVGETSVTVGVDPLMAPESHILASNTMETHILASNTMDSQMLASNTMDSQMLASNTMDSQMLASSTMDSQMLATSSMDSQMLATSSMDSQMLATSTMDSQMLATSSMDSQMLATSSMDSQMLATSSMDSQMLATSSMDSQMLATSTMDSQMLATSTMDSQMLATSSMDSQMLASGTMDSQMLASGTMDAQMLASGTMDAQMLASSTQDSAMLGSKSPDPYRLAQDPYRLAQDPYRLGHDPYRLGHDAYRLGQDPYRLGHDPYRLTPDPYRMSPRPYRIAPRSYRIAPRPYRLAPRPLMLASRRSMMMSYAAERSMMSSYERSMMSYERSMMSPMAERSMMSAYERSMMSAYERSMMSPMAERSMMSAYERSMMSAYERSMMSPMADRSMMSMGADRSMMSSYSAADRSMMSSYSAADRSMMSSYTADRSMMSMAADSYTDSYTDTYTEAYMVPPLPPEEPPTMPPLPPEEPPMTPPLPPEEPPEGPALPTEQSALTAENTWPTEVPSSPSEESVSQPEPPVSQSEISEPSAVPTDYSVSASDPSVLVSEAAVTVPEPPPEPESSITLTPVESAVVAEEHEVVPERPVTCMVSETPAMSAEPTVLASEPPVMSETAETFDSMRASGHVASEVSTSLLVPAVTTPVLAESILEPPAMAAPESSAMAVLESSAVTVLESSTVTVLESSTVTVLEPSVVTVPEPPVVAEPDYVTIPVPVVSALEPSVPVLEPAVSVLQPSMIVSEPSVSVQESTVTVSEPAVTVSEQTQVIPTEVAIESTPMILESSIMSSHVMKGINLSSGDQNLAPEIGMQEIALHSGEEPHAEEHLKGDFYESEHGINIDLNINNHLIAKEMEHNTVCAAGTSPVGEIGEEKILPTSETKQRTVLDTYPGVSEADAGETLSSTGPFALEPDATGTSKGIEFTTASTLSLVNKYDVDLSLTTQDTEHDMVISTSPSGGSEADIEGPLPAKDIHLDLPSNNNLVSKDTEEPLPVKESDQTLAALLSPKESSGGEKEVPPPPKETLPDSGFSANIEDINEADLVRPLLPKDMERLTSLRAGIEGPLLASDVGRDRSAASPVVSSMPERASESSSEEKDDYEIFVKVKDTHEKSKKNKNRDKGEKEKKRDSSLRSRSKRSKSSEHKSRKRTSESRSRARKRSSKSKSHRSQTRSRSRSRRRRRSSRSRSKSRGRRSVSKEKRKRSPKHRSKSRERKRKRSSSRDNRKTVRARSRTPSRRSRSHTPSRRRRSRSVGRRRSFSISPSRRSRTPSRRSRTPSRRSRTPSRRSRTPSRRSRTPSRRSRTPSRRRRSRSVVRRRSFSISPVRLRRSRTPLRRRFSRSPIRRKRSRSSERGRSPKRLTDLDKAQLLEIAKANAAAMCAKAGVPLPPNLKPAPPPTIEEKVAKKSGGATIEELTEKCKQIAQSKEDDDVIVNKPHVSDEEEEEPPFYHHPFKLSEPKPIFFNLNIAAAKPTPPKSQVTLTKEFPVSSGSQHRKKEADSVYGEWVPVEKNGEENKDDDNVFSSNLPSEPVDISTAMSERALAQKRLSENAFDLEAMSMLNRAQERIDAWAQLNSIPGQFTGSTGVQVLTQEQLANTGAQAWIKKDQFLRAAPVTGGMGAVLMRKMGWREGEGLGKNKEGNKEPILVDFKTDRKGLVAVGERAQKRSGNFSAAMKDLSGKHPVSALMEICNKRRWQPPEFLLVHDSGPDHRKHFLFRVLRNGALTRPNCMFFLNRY
UniProt Q9Y5W7: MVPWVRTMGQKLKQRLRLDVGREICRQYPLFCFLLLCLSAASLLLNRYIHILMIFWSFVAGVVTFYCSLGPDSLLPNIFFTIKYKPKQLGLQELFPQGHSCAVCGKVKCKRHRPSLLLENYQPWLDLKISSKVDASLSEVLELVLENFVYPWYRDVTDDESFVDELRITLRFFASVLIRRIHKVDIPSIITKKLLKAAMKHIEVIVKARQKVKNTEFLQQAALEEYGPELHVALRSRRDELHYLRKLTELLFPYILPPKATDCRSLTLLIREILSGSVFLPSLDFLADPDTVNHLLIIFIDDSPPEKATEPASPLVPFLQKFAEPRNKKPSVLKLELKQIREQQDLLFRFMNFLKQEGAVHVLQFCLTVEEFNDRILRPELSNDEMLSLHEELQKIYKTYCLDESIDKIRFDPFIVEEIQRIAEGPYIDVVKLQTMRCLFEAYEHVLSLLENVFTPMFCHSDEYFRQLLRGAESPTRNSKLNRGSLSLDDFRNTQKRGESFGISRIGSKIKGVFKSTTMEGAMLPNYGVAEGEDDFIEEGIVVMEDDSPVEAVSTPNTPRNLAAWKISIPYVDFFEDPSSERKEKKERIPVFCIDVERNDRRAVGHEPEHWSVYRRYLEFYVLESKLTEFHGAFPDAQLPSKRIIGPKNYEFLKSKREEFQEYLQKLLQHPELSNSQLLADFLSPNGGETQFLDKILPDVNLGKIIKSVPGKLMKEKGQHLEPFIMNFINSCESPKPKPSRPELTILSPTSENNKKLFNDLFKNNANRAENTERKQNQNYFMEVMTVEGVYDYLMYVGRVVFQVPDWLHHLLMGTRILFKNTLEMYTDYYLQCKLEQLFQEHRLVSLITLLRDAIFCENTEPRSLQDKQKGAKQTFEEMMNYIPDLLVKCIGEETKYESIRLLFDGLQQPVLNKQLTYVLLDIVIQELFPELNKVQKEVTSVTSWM
UniProt Q9UMY4: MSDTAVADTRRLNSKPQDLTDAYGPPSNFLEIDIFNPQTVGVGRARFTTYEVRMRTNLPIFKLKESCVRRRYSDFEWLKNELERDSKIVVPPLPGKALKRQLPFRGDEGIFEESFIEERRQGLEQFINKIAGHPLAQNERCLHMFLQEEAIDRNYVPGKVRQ
UniProt P35270: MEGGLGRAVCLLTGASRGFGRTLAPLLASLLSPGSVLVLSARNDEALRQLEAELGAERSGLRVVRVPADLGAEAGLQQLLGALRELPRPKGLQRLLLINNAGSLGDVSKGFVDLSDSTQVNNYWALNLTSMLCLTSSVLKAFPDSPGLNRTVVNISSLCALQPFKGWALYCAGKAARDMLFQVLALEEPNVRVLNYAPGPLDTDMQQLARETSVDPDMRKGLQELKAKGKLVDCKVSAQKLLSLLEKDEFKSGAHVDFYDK

Compound: CC1Cc2ccccc2N1C(=O)C1CCCN(C1)C(=O)CCl (mixture of isomers) [TRIM25 ligand 11 (diastereomer mixture)]
Experiment: probe-labelled cysteine peptide fold change vs DMSO (competition) (log2 fold change); higher = less target engagement (more negative = stronger competition)
Settings: THP-1, incubation time: 4 h
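Further: competitive chemoproteomic profiling in live THP-1 cells with an iodoacetamide desthiobiotin (IA-DTB) probe, comparing probe-labelled peptide intensities in compound-treated cells against DMSO-treated controls.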

| Target | probe-labelled cysteine peptide fold change (10 µM) | probe-labelled cysteine peptide fold change (50 µM) |
| --- | --- | --- |
| SNTB1_Q13884_515_DGEIQLDLHSCPK (UniProt Q13884) | 0.144 | 0.6 |
| SPATS2_Q86XZ4_280_QAFAELESCLMDR (UniProt Q86XZ4) | -0.0871 | 0.149 |
| SNX27_Q96L92_513_IFTPYFNYMHECFER (UniProt Q96L92) | 0.0211 | 0.164 |
| SOWAHD_A6NJG2_109_LCLEPR (UniProt A6NJG2) | -0.0136 | 0.102 |
| SNX20_Q7Z614_236_LTAHCPAAAVPALCAVLLCHR (UniProt Q7Z614) | -0.0692 | 0.06 |
| SNX16_P57768_230_AFCETLEETNYR (UniProt P57768) | -0.0273 | -0.197 |
| SPAG1_Q07617_633_EEGNQCVNDK (UniProt Q07617) | -0.0737 | -0.0909 |
| SORBS3_O60504_645_EGDRVDVMQQCDDGWFVGVSR (UniProt O60504) | -0.164 | -0.18 |
| SP3_Q02447_683_KFVCPECSK (UniProt Q02447) | 0.0895 | 0.174 |
| SRP68_Q9UHB9_586_QANLVHFPPGFQPIPCKPLFFDLALNHVAFPPLEDKLEQK (UniProt Q9UHB9) | -0.375 | -0.439 |
| SRP19_P09132_94_QEDGSLCLVQFPSR (UniProt P09132) | 0.342 | 0.271 |
| SPATS2L_Q9NUQ6_367_TPCSSLLPLLNAHAATSGK (UniProt Q9NUQ6) | 0.0873 | -0.185 |
| SPG21_Q9NZD8_204_LTLNCQNSYVEPHK (UniProt Q9NZD8) | -0.11 | -0.0338 |
| SRBD1_Q8N5C6_165_ASNLEGESNSSETPSTSTVWGGTCK (UniProt Q8N5C6) | -0.137 | -0.158 |
| SORD_Q00796_179_VLVCGAGPIGMVTLLVAK (UniProt Q00796) | -0.904 | -0.915 |
| SRM_P19623_25_ETCSLWPGQALSLQVEQLLHHRR (UniProt P19623) | -0.145 | -0.0529 |
| SP3_Q02447_623+628_QHICHIPGCGK (UniProt Q02447) | -0.121 | 0.0275 |
| SNX5_Q9Y5X3_346_LAEAHQQECCQK (UniProt Q9Y5X3) | -0.0347 | 0.0484 |
| SPTAN1_Q13813_2120_CNSLEEIK (UniProt Q13813) | -0.0591 | 0.0255 |

| Target | probe-labelled cysteine peptide fold change (10 µM) | probe-labelled cysteine peptide fold change (50 µM) |
| --- | --- | --- |
| SP100_P23497_266+270_EMPCPLPCDEESPEAELHNHGIQINSCSVR (UniProt P23497) | -0.363 | -0.458 |
| SRP72_O76094_349_ISASLQSQSPEHLLPVLIQAAQLCR (UniProt O76094) | 0.269 | -0.0633 |
| SRP72_O76094_179_VVPENLGLQEGTHELCYNTACALIGQGQLNQAMK (UniProt O76094) | 0.0902 | 0.192 |
| SPEN_Q96T58_877_NRLELMPCVVLTR (UniProt Q96T58) | -0.0652 | -0.00885 |
| SPTBN1_Q01082_1900_SLLDACESR (UniProt Q01082) | 0.0137 | 0.0605 |
| SRP68_Q9UHB9_525_CSLQAAAILDANDAHQTETSSSQVK (UniProt Q9UHB9) | 0.0932 | -0.212 |
| SON_P18583_92_CVSVQTDPTDEIPTKK (UniProt P18583) | -0.114 | -0.537 |
| SRI_P30626_57+75_CLTQSGIAGGYKPFNLETCR (UniProt P30626) | -0.187 | -0.141 |
| SNX14_Q9Y5W7_593_IPVFCIDVER (UniProt Q9Y5W7) | 0.3 | 0.776 |
| SRBD1_Q8N5C6_827_TAVNVLLKPNPLDQTCIHPESYDIAMR (UniProt Q8N5C6) | -0.21 | 0.000566 |
| SNX18_Q96RF0_30_EHEVLSLCSEQDIEGWLEGVNSR (UniProt Q96RF0) | 0.0682 | -0.146 |
| SPATS2L_Q9NUQ6_111_DKVERPEAGPLQPQPPQIQNGPMNGCEK (UniProt Q9NUQ6) | -0.177 | -0.279 |
| SORL1_Q92673_736_ISGDTCSGGDVEAR (UniProt Q92673) | 0.052 | -0.00891 |
| SNX12_Q9UMY4_141_CLHMFLQEEAIDR (UniProt Q9UMY4) | -0.0267 | -0.0364 |
| SPR_P35270_159_TVVNISSLCALQPFK (UniProt P35270) | 0.0343 | -0.0945 |
| SP1_P08047_606_EACTCPYCK (UniProt P08047) | 0.0603 | 0.121 |
| SPATA5_Q8NB90_81_SANICIGRPVLLTSLNGK (UniProt Q8NB90) | -0.313 | -0.172 |
| SON_P18583-2_2133_DLMANATCFR (UniProt P18583) | 0.0436 | -0.0517 |
| SRP72_O76094_54_VVCLIQNGSFK (UniProt O76094) | 0.0566 | 0.0489 |

Reformatted: results already given.
SRP72_O76094_349_ISASLQSQSPEHLLPVLIQAAQLCR (UniProt O76094)
  probe-labelled cysteine peptide fold change (10 µM) = 0.269
  probe-labelled cysteine peptide fold change (50 µM) = -0.0633
SRP72_O76094_179_VVPENLGLQEGTHELCYNTACALIGQGQLNQAMK (UniProt O76094)
  probe-labelled cysteine peptide fold change (10 µM) = 0.0902
  probe-labelled cysteine peptide fold change (50 µM) = 0.192
